In PubChem BioAssay AID2685 (National Center for Advancing Translational Sciences (NCATS), 2010) one finds AC50 and cell number change data, which are given here for 61 compounds.

This is one part of the list. Shown are side measurements of this screen, not its main read-out; they come without a call. Most of these compounds were active or inconclusive in the main read-out, so they are no random draw. The note in brackets gives the kind of curve behind each potency; many fits are weak.

The nature of this experiment: qHTS Assay for Lipid Storage Modulators in Drosophila S3 Cells.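 On cell number change: cells counted by Cell Tracker Red CMTPX staining in the red channel.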 The following applies: BODIPY lipid droplet fluorescence, 18-24 h; for cell number change: measured here: cell count max response, cells fed with added oleic acid. The procedure, abridged: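 Drosophila S3 cells got compounds at several concentrations plus oleic acid (400 uM solution). Laser-scanning cytometry with 488 nm excitation read lipid droplets at 500-530 nm and cells at 575-640 nm. Percent activity was relative to 20 uM Triacsin C.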

Where [1] appears, read: measured here: lipid fluorescence (Fed channel) AC50, cells fed with added oleic acid.
Where [2] appears, read: measured here: cell number channel AC50, cells fed with added oleic acid.

`CC(NC(=O)c1ccccc1Cl)C(=O)NCc1cccs1` (stereo not given): the AC50 under setting [1] was 0.13 µM [falling, full curve, poor fit].

For the compound `O=C(Cc1coc2ccc3ccccc3c12)N1CCc2ccccc21`, the cell number change is 5.44%.

Take `O=C(Nc1ccncc1)C1COc2ccccc2O1` (stereo not given): the cell number change was -16.7%.

Regarding `CCCCNC(=O)NNC(=O)C1CC1(c1ccccc1)c1ccccc1` (stereo not given), the cell number change is -4.23%. Further, under setting [1], the half-maximal activity concentration (AC50) was 29.1 µM [falling, single point].

Turning to `O=C(O)CC1=C(Nc2ccccc2)C(=O)N(c2ccccc2)C1c1ccc(Br)cc1` (stereo not given), the cell number change was -15.4%. Also, the AC50 under setting [1] is 32.6 µM [falling, single point].

For the compound `Cc1cccc(C)c1OCc1cc(C(=O)N(C)Cc2cc(C3CC3)n[nH]2)no1`, the cell number change was found to be 4.74%. Further, under setting [1], the AC50 was 2.06 µM [falling, full curve, poor fit].

Turning to `O=C(c1ccco1)N1CCN(c2ccnc3cc(Cl)ccc23)CC1`, the cell number change was -12.4%. Moreover, the AC50 under setting [1] was 0.58 µM [falling, full curve].

Regarding `Cc1cc(C)cc(OCC(O)CN2CC(C)OC(C)C2)c1` (stereo not given), the cell number change amounted to 5.62%. Moreover, the concentration at half-maximal activity (AC50) under setting [1] was 0.731 µM [rising, single point].

In the case of `c1ccc(-c2noc(C34CC5CC(CC(C5)C3)C4)n2)nc1`, the cell number change was -69%. Moreover, the AC50 under setting [2] is 29.1 µM [falling, single point].

As to `COc1ccc(C(=O)NCCc2nnc(SCC(=O)Nc3ccc(Br)cc3)n2C)cc1`, the cell number change came to 110%. For the same compound, the half-maximal activity concentration (AC50) under setting [2] was 29.1 µM [rising, single point]. Under setting [1], the half-maximal activity concentration (AC50) is 29.1 µM [rising, single point].

Regarding `N#CC(C#N)=C1C=CC=CN1/C(=C\c1ccco1)C(=O)c1ccc(Br)cc1`, the cell number change is -44.8%. Under setting [2], the AC50 is 5.17 µM [falling, full curve]. Also, the half-maximal activity concentration (AC50) under setting [1] is 5.17 µM [falling, full curve].

As for `Cc1ccc(/C=N/NC(=O)CSc2nc3ccccc3s2)o1`, the cell number change was determined as 18.2%. For the same compound, the AC50 under setting [1] was 0.00517 µM [falling, full curve, poor fit].

For `O=C(Nc1ccc(N2CCOCC2)cc1)C1=NN(c2ccccc2)C(=O)CC1`, the cell number change is -22.9%. Further, the concentration at half-maximal activity (AC50) under setting [2] is 0.00651 µM [falling, full curve, poor fit].

For `CCCCN1CC(=O)N2[C@H]3c4cc(C)ccc4OC[C@@H]3[C@H](C(=O)OCC)[C@]2(C)C1=O`, the cell number change was -26.4%. Further, under setting [1], the half-maximal activity concentration (AC50) was 0.164 µM [falling, full curve].

As for `Cc1ccccc1-n1nnc2c(=O)oc3ccccc3c21`, the cell number change was -119%. For the same compound, the half-maximal activity concentration (AC50) under setting [2] was 23.1 µM [falling, partial curve]. The AC50 under setting [1] is 25.9 µM [falling, partial curve].

Take `O=C(CCCn1nnc2ccccc2c1=O)N[C@H](C(=O)O)c1ccccc1`: the cell number change is -59.4%. Further, the AC50 under setting [2] is 29.1 µM [falling, single point]. The AC50 under setting [1] was 29.1 µM [falling, single point].

Take `COC(=O)C1=C(C)N(Cc2ccccc2)C(=NCCc2c[nH]c3ccccc23)N[C@H]1c1ccccc1`: the cell number change was -1.16%. Further, the AC50 under setting [1] is 7.31 µM [falling, partial curve].

As for `CCOC(=O)C1(Cc2cccc(OC)c2)CCN(CC(O)CO)CC1` (stereo not given), the cell number change was -34.3%. Moreover, the AC50 under setting [1] was 10.3 µM [falling, partial curve, poor fit].

As for `O=[N+]([O-])c1ccccc1/C=C/CN1CCCC(CO)C1` (stereo not given), the cell number change was determined as 11.9%. Moreover, the AC50 under setting [1] is 0.731 µM [rising, single point].

Regarding `N#C/C(=C\c1cccc(Cl)c1)C(=O)c1ccccc1`, the cell number change was -5.02%. Further, the AC50 under setting [2] is 2.91 µM [falling, single point].

In the case of `CCOC(=O)CC(=O)Nc1ccc(C(=O)OCC)cc1`, the half-maximal activity concentration (AC50) was 0.184 µM [falling, full curve, poor fit] under setting [2] and 0.411 µM [falling, partial curve, poor fit] under setting [1].

In the case of `Cc1c(NS(=O)(=O)c2ccc([N+](=O)[O-])cc2)c(=O)n(-c2ccccc2)n1C`, the cell number change was -0.824%. In addition, the AC50 under setting [1] is 29.1 µM [rising, single point].

Turning to `Cc1ccccc1N(C)S(=O)(=O)c1ccc2[nH]cc(C(=O)NCC3CCCO3)c(=O)c2c1` (stereo not given), the AC50 under setting [2] was 0.82 µM [rising, single point].

As for `N#Cc1ccc(C(=O)OCC(=O)Nc2cccnc2Cl)cc1`, the cell number change was 25.4%. Besides, the AC50 under setting [1] was 0.82 µM [rising, partial curve, poor fit].

Turning to `CCCNC(=O)c1nnsc1S(=O)c1ccc(Cl)cc1` (stereo not given), the cell number change is -57.7%.

`COc1cc(C(=O)NNC(=O)COc2ccccc2Cl)ccc1OCC(=O)N1CCOCC1`: the cell number change is 13.3%. The concentration at half-maximal activity (AC50) under setting [1] was 1.64 µM [rising, full curve, poor fit].

Regarding `CCCC(=O)N(CCN1CCOCC1)c1nc2cc(C)c(C)cc2s1`, the cell number change was -20.1%. For the same compound, the AC50 under setting [1] was 29.1 µM [falling, single point].

As for `COc1ccc(CN(C(=O)c2snc(C(N)=O)c2N)C(C(=O)NC2CCCC2)c2ccc(OC)c(OC)c2)cc1` (stereo not given), the cell number change is 19.2%.

Turning to `CCOC(=O)c1c(C)[nH]c(C)c1C(=O)CN1C(=O)NC2(CCC(C)CC2)C1=O` (stereo not given), the cell number change amounted to 32.1%. The concentration at half-maximal activity (AC50) under setting [2] was 16.4 µM [rising, single point]. Besides, the AC50 under setting [1] is 29.1 µM [rising, single point].

As for `Cc1ccnc(NC(=O)CCCOc2ccc(Cl)cc2C)c1`, the cell number change is 17.1%.

For `Cc1ccc(/C=N/Nc2nncc(-c3ccccc3)n2)o1`, the cell number change was 18.9%.

Turning to `O=C(COC(=O)c1cccc(F)c1)Nc1cccnc1Cl`, the cell number change was determined as 42.1%. Moreover, the AC50 under setting [2] was 32.6 µM [rising, single point]. Also, the AC50 under setting [1] was 0.411 µM [rising, partial curve, poor fit].

As for `COc1ccccc1NC(=O)CN(Cc1ccco1)C(=O)c1ccc(-n2nc(C)cc2C)cc1`, the cell number change is -17.3%.

Turning to `COc1ccccc1-c1nc2n(n1)C(c1cccs1)C(C(=O)Nc1cccnc1)=C(C)N2` (stereo not given), the AC50 is 0.164 µM [rising, full curve] under setting [2] and 0.206 µM [rising, partial curve, poor fit] under setting [1].

In the case of `c1cc2c(cnc3cscc32)s1`, the cell number change came out at 31.3%. In addition, under setting [2], the AC50 is 16.4 µM [rising, single point].

`Cc1c2c(nc3ccccc13)OCC2`: the cell number change is 14%. Also, under setting [1], the concentration at half-maximal activity (AC50) was 0.92 µM [rising, full curve, poor fit].

With `Cc1ccc(NC(=O)NCC2CCN(Cc3cccc(Cl)c3)CC2)cc1Cl`, the cell number change is -98.8%. Besides, under setting [2], the half-maximal activity concentration (AC50) is 29.1 µM [falling, single point].

`CC(=O)ONC(=Nc1ccccc1)c1nonc1N`: the cell number change was -17.4%. The concentration at half-maximal activity (AC50) under setting [1] was 0.731 µM [falling, full curve].

With `CC1CC(C)CN(C(=O)CSc2nc(Cc3cccs3)nc3ccccc23)C1` (stereo not given), the concentration at half-maximal activity (AC50) under setting [1] was 0.13 µM [rising, full curve, poor fit].

For `CSc1ccc(/C=C(/NC(=O)c2ccco2)C(=O)N2CCCCC2)cc1`, the cell number change was -22.1%.

As to `Cc1cccc(-n2c(N)c(C(=O)NCCN3CCOCC3)c3nc4ccccc4nc32)c1`, the cell number change is -20%. Under setting [1], the AC50 is 29.1 µM [rising, single point].

With `CCCc1cc(=O)[nH]c(SCC(=O)Nc2ccc(Cl)c(S(=O)(=O)N3CCOCC3)c2)n1`, the cell number change was -4.97%. The half-maximal activity concentration (AC50) under setting [1] is 9.2 µM [falling, partial curve].

Take `O=C(Nc1ncc([N+](=O)[O-])s1)c1cccc([N+](=O)[O-])c1`: the AC50 under setting [1] is 1.3 µM [falling, full curve, poor fit].

Take `CC(C)(C)c1ccc(C(=O)N2CCC(C(=O)NCCC3=CCCCC3)CC2)cc1`: the cell number change is -23.8%. In addition, the AC50 under setting [1] was 2.91 µM [falling, partial curve, poor fit].

On to `O=C1CN=C(Nc2cccc(C(F)(F)F)c2)N1C1CCCC1`, for which the cell number change was found to be 10.8%. Further, under setting [1], the half-maximal activity concentration (AC50) was 0.058 µM [rising, full curve, poor fit].

As to `C=CCn1c(SCC(=O)/C(C#N)=C(\C)N)nc2sc(C)c(C)c2c1=O`, the cell number change is 9.35%. Besides, under setting [1], the AC50 is 0.58 µM [rising, full curve, poor fit].

For the compound `CC(C)n1nccc1N(Cc1ccc(C#N)cc1)S(=O)(=O)c1ccccc1`, the cell number change was -18.4%.

`CCOC(=O)CC1C(=O)NCCN1S(=O)(=O)c1cccc(C(F)(F)F)c1` (stereo not given): the cell number change came out at 14.6%.

Take `CCc1nnc(NC(=O)c2cccc(C(=O)Nc3nnc(CC)s3)n2)s1`: the cell number change is -21.6%. Further, the AC50 under setting [1] is 8.2 µM [falling, partial curve, poor fit].

`CC1(C)Cc2ccccc2-c2nnc(-c3ccccc3)n21`: the cell number change was found to be 11.7%.

On to `O=C(O)C1CCCN1C1=NS(=O)(=O)c2ccccc21` (stereo not given), for which the cell number change came to 2.56%. In addition, the AC50 under setting [1] was 6.51 µM [rising, single point].

On to `CCN1CCC(=NNC(=O)c2ccco2)CC1`, for which the cell number change stood at 9.86%. Under setting [1], the concentration at half-maximal activity (AC50) was 0.146 µM [rising, full curve, poor fit].

For `CCCCNC(=O)C1c2ccccc2Oc2ccccc21`, the cell number change was found to be 31.8%. Also, under setting [1], the half-maximal activity concentration (AC50) was 16.4 µM [rising, partial curve, poor fit].

With `O=C(CSc1nc(-c2ccccc2F)nc2nc[nH]c12)Nc1c(Cl)cc(Cl)cc1Cl`, the cell number change was found to be 7.32%.

As for `Cc1nnc(SCC(=O)Nc2cc(C(C)(C)C)nn2-c2ccccc2)s1`, the cell number change was -37.2%. The AC50 under setting [2] was 32.6 µM [falling, single point]. In addition, under setting [1], the AC50 is 23.1 µM [falling, partial curve].

For `O=C(CNC(=O)c1ccccc1Cl)NC1CCN(Cc2ccccc2)CC1`, the cell number change is -34.1%. In addition, the AC50 under setting [2] was 1.46 µM [falling, partial curve]. Besides, the AC50 under setting [1] was 0.651 µM [falling, single point].

As for `CC1=C(C)CC(C(=O)Nc2ccc(C(N)=O)cc2)C(C(=O)O)C1` (stereo not given), the cell number change stood at 4.73%. In addition, the AC50 under setting [1] was 0.0326 µM [falling, full curve, poor fit].

With `CCOc1ccc(N(CC(=O)NC2CCCC2)C(=O)CCCC(=O)Nc2ccccn2)cc1`, the cell number change amounted to 3.6%.

Turning to `N#Cc1c(Cl)nsc1NN`, the cell number change is -34.2%. For the same compound, under setting [2], the half-maximal activity concentration (AC50) was 0.517 µM [falling, full curve]. Besides, under setting [1], the AC50 was 29.1 µM [rising, single point].

Regarding `Cc1ccc(-c2ccc(/C=N/N3C(=O)C4C5C=CC(CC5)C4C3=O)o2)c([N+](=O)[O-])c1` (stereo not given), the cell number change was 27.8%. The half-maximal activity concentration (AC50) under setting [2] was 4.61 µM [rising, full curve, poor fit]. The AC50 under setting [1] is 6.51 µM [rising, single point].

On to `CC1(C)CC2CC(C)(CN2C(=O)CN2C(=O)c3ccccc3C2=O)C1` (stereo not given), for which the cell number change is 6.33%. In addition, the half-maximal activity concentration (AC50) under setting [1] was 0.58 µM [rising, partial curve].
